# Measured values from PubChem BioAssay AID2685 (National Center for Advancing Translational Sciences (NCATS), 2010).
# This is one part of the list. The main result of the screen is listed elsewhere. These columns were measured beside it and carry no call. Compounds called inactive in the main read-out are mostly missing here. The note in brackets gives the kind of curve behind each potency; many fits are weak.
# Test: qHTS Assay for Lipid Storage Modulators in Drosophila S3 Cells;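 for cell number change: cells counted by Cell Tracker Red CMTPX staining in the red channel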
# Conditions: BODIPY lipid droplet fluorescence, 18-24 h; for cell number change: measured here: cell count max response, cells fed with added oleic acid
# Outline: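 Drosophila S3 cells got compounds at several concentrations plus oleic acid (400 uM solution). Laser-scanning cytometry with 488 nm excitation read lipid droplets at 500-530 nm and cells at 575-640 nm. Percent activity was relative to 20 uM Triacsin C.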
# [1] = measured here: cell number channel AC50, cells fed with added oleic acid
# [2] = measured here: lipid fluorescence (Fed channel) AC50, cells fed with added oleic acid
Structure (SMILES),cell number change,AC50 [1],AC50 [2]
CCOc1ccccc1N(C(=O)c1snc(C(N)=O)c1N)C(C(=O)NCc1ccccc1)c1ccc(O)cc1 (configuration not stated),-4.84%,"0.00517 µM [rising, full curve, poor fit]","0.731 µM [rising, full curve]"
CCOc1ccc(-n2c(=S)sc3c(=O)[nH]c(SCC(=O)NC(C)CC)nc32)cc1 (configuration not stated),-12.8%,–,"0.184 µM [rising, full curve, poor fit]"
CCCCCCNC(=O)C(C(=O)OCC)C1CCCCC1 (configuration not stated),6.03%,–,–
O=C(CCNS(=O)(=O)c1cccc2nonc12)NC1CCCCC1,-0.683%,–,–
COc1cccc(/C=N/c2oc(-c3ccccc3)cc2C#N)c1O,–,–,"0.13 µM [falling, full curve, poor fit]"
Cc1occc1C(=O)NNC(=O)c1ccc(S(=O)(=O)N(C)C)cc1,20.2%,–,"7.31 µM [rising, partial curve, poor fit]"
NC(=O)C1Cc2ccccc2CN1C(=O)c1cccc(Oc2ccccc2)c1 (configuration not stated),9.72%,–,"0.58 µM [falling, single point]"
Cc1ccc(C(=O)CSC2=NC(N)=C(C#N)C3(CCCCC3)C2C(N)=O)cc1 (configuration not stated),0.264%,–,"5.8 µM [rising, single point]"
CCN(CC)CC1(O)CCN(C(=O)c2ccc(Cl)c(Cl)c2)CC1,-18.3%,–,"35.5 µM [falling, single point]"
Cc1cccc(Nc2nc(C)cc(C)c2C#N)c1,6.57%,–,"14.6 µM [rising, partial curve]"
Cc1c(Br)c([N+](=O)[O-])nn1C(C)C(=O)NCc1cccs1 (configuration not stated),-15.1%,"6.51 µM [falling, single point]","3.66 µM [falling, partial curve, poor fit]"
CC(C)Cc1cc(C(=O)N2CCCC(C(=O)c3cc(F)ccc3F)C2)no1 (configuration not stated),-3.3%,–,–
COc1ccc(C2=NS(=O)(=O)N(C)C(C(=O)Nc3ccc(F)cc3F)=C2)cc1,21.9%,–,–
CN(CC(=O)Nc1ccc(S(=O)(=O)N2CCCC2)cc1)Cc1cccc(Cl)c1Cl,-16.7%,–,"23.1 µM [falling, partial curve, poor fit]"
Cn1c(=O)oc2cc(S(=O)(=O)CCC(=O)NCCc3ccccc3)ccc21,-12%,–,–
COc1cc(C(=O)OCC(=O)NC2CC2)cc(OC)c1OC,18.6%,–,"10.3 µM [rising, partial curve, poor fit]"
CCOc1ccccc1N1CCN(C(=O)c2c(C)noc2C)CC1,7.35%,–,"20.6 µM [rising, single point]"
COc1ccc(CCNC(=O)/C=C/C(=O)O)cc1,32.5%,–,"7.31 µM [falling, partial curve, poor fit]"
CCc1ccc(OCCOCC(O)CN(CCO)CCO)cc1 (configuration not stated),-16.7%,–,"0.291 µM [falling, full curve, poor fit]"
CN(C)c1cccc(C(=O)NCC(c2ccco2)N(C)C)c1 (configuration not stated),-7.89%,–,–

Structure (SMILES),cell number change,AC50 [1],AC50 [2]
CCCCn1c2nc3ccccc3nc2c2c(=O)n(CCC(C)C)cnc21,0.829%,"6.51 µM [rising, single point]",–
CCS(=O)(=O)Nc1cccc(-c2cn3c(n2)SCC3)c1,30.1%,"23.1 µM [rising, single point]","29.1 µM [rising, single point]"
COc1ccc2c(c1)[C@H]1[C@H](CO2)[C@H](c2ccccc2)[C@]2(C)C(=O)Nc3cc(F)c(F)cc3C(=O)N12,0.066%,–,"3.26 µM [falling, single point]"
CCN(CC)C(=O)C1=C(C)NC(=S)NC1c1cccs1 (configuration not stated),-17.2%,"0.82 µM [rising, single point]","6.51 µM [falling, partial curve]"
O=C(C1CCN(S(=O)(=O)c2cc(Cl)ccc2Cl)CC1)N1CCCC1,16.7%,–,–
CCSc1nnc(NC(=O)C(Cc2ccccc2)n2cccc2)s1 (configuration not stated),-28.8%,"0.0164 µM [falling, full curve]",–
Cc1cc(CNC(=O)c2ccc(C)c([N+](=O)[O-])c2)c2ccccc2n1,–,"0.366 µM [rising, partial curve]","0.517 µM [rising, partial curve]"
Cc1cc2oc(=O)cc(CN3CCN(S(=O)(=O)/C=C/c4ccccc4)CC3)c2cc1C,-1.36%,–,"3.26 µM [rising, partial curve]"
O=C(Nc1ccc2c(c1)OCCO2)NC1CCCCC1,–,"5.8 µM [falling, partial curve]","29.1 µM [falling, single point]"
CCOC(=O)c1sc(-c2ccccc2)cc1NC(=O)CSc1nnnn1C,-18.9%,–,"23.1 µM [rising, partial curve, poor fit]"
Cc1cc(C)nc(N/N=C/c2c(C)oc3ccccc23)n1,–,"0.82 µM [rising, partial curve]",–
Nc1nnc(CCCCc2cccs2)o1,-14%,–,"29.1 µM [falling, single point]"
O=C(Cn1c(=O)c2cccn2c2cccnc21)N1CCN(c2ccc(Cl)cc2)CC1,-40.5%,"32.6 µM [falling, single point]",–
N#Cc1ccccc1COC(=O)c1ccc2c(c1)OCO2,-32.7%,"29.1 µM [falling, single point]","16.4 µM [falling, single point]"
Cc1ccsc1/C=N/NC(=O)c1ccncc1,48.2%,"3.26 µM [falling, partial curve]","3.66 µM [falling, partial curve, poor fit]"
CC1Cc2ccccc2C(=O)N1 (configuration not stated),-14.8%,–,"29.1 µM [falling, single point]"
COC(=O)C(NC(=O)CCC(=O)N[C@@H](C(=O)OC)c1ccccc1)c1ccccc1 (some centres not stated),11%,–,"29.1 µM [rising, single point]"
CC1(C)CC2CC(C)(CN2S(=O)(=O)c2ccc(C(=O)Nc3cc(S(=O)(=O)N4CCOCC4)ccc3Cl)cc2)C1 (configuration not stated),–,"6.51 µM [rising, single point]",–
COC(=O)c1cnc(SC)nc1C,-102%,"29.1 µM [falling, single point]","29.1 µM [falling, partial curve]"
COCCn1nnnc1C(C(C)C)N(Cc1ccccc1)Cc1cc2cc(OC)ccc2[nH]c1=O (configuration not stated),-47.7%,"29.1 µM [falling, single point]",–

# Fetched by structure from the list above, four records:
Structure (SMILES),cell number change,AC50 [1],AC50 [2]
COC(=O)c1cnc(SC)nc1C,-102%,"29.1 µM [falling, single point]","29.1 µM [falling, partial curve]"
CCOC(=O)c1sc(-c2ccccc2)cc1NC(=O)CSc1nnnn1C,-18.9%,–,"23.1 µM [rising, partial curve, poor fit]"
CC1(C)CC2CC(C)(CN2S(=O)(=O)c2ccc(C(=O)Nc3cc(S(=O)(=O)N4CCOCC4)ccc3Cl)cc2)C1 (configuration not stated),–,"6.51 µM [rising, single point]",–
Cc1cc2oc(=O)cc(CN3CCN(S(=O)(=O)/C=C/c4ccccc4)CC3)c2cc1C,-1.36%,–,"3.26 µM [rising, partial curve]"

# Later entries

Structure (SMILES),cell number change,AC50 [1],AC50 [2]
COc1cc(SC)ccc1C(=O)NNC(=O)c1cc(C)oc1C,100%,–,–
COc1ccc(NC(=O)c2ccc(=O)[nH]c2)cc1S(=O)(=O)N1CCCCC1,-14.6%,–,"7.31 µM [falling, partial curve, poor fit]"
c1coc(-c2ccnc(-n3cccc3)n2)c1,7.56%,–,"0.517 µM [rising, full curve]"
Cc1ccc(SCCNC(=S)Nc2ccccc2)cc1,38.2%,"9.2 µM [rising, partial curve]","2.31 µM [rising, partial curve]"
COc1ccc(C2C(C(=O)c3ccccc3)N3c4ccccc4C=CC3C2[N+](=O)[O-])cc1 (configuration not stated),-50.7%,"2.06 µM [falling, partial curve]","2.31 µM [rising, partial curve]"
OC(COc1cccc2ccccc12)CN1CCN(c2ccccn2)CC1 (configuration not stated),-28.7%,–,"23.1 µM [falling, single point]"
COc1ccc(OC2C(=O)N(c3cc(C)ccc3C)C2c2ccc(OC)c(OC)c2)cc1 (configuration not stated),-15.4%,–,–
O=C(Cc1ccc(Br)cc1)Nc1ccccc1Sc1ccccc1,138%,–,–
CSc1nn2cc(CCN3CCOCC3)c(-c3ccc(F)cc3)nc2c1C#N,22.7%,"0.731 µM [rising, full curve, poor fit]","0.731 µM [rising, full curve, poor fit]"
CC(=O)c1sc(NC(=O)CCN2C(=O)C3CC=CCC3C2=O)nc1-c1ccccc1 (configuration not stated),–,–,"0.58 µM [rising, partial curve, poor fit]"
CCc1nc(SCc2ccc(OC)c(Br)c2)n[nH]1,11.9%,–,"23.1 µM [rising, single point]"
O=C(O)CCC(=O)Nc1cccc(-c2nnc(-c3ccccc3)o2)c1,-6.04%,"0.058 µM [falling, full curve, poor fit]","29.1 µM [rising, single point]"
CCOc1c(Nc2ccccc2O)c(=O)c1=O,11.6%,–,"23.1 µM [rising, single point]"
CCOc1ccc(/C=C/C(=O)OCC(=O)NCCc2ccc(OCC)c(OCC)c2)cc1OC,-53.9%,"29.1 µM [falling, single point]",–
COc1ccc(/C=C/C(=O)O)cc1S(=O)(=O)Nc1ccc2c(c1)OCO2,11.7%,–,–
CN(Cc1ccccc1)C(=S)NC(=O)c1ccccc1,31.5%,"29.1 µM [rising, single point]","29.1 µM [rising, single point]"
COc1ccc(/C=N/NC(=O)Cc2csc(Nc3cccc(C(F)(F)F)c3)n2)cc1C,-38%,"29.1 µM [falling, single point]","16.4 µM [falling, partial curve]"
CC(=O)N1CCN(S(=O)(=O)c2cccc(C(=O)Nc3ccc(OC(F)F)cc3)c2)CC1,-3.81%,"0.0651 µM [rising, full curve, poor fit]",–
Cc1ccccc1CSc1nnc(-c2cccnc2)n1N,-5.71%,–,–
CC1=C(C(=O)OC(C)C)C(C)NC(=O)N1 (configuration not stated),3.7%,–,"29.1 µM [falling, single point]"
